# Laboratory results published in paper PMC4530586, “STIL binding to Polo-box 3 of PLK4 regulates centriole duplication” (eLife, 2015).
# Amino acid sequences for entries named in this document (tags omitted).
# UniProt O94986: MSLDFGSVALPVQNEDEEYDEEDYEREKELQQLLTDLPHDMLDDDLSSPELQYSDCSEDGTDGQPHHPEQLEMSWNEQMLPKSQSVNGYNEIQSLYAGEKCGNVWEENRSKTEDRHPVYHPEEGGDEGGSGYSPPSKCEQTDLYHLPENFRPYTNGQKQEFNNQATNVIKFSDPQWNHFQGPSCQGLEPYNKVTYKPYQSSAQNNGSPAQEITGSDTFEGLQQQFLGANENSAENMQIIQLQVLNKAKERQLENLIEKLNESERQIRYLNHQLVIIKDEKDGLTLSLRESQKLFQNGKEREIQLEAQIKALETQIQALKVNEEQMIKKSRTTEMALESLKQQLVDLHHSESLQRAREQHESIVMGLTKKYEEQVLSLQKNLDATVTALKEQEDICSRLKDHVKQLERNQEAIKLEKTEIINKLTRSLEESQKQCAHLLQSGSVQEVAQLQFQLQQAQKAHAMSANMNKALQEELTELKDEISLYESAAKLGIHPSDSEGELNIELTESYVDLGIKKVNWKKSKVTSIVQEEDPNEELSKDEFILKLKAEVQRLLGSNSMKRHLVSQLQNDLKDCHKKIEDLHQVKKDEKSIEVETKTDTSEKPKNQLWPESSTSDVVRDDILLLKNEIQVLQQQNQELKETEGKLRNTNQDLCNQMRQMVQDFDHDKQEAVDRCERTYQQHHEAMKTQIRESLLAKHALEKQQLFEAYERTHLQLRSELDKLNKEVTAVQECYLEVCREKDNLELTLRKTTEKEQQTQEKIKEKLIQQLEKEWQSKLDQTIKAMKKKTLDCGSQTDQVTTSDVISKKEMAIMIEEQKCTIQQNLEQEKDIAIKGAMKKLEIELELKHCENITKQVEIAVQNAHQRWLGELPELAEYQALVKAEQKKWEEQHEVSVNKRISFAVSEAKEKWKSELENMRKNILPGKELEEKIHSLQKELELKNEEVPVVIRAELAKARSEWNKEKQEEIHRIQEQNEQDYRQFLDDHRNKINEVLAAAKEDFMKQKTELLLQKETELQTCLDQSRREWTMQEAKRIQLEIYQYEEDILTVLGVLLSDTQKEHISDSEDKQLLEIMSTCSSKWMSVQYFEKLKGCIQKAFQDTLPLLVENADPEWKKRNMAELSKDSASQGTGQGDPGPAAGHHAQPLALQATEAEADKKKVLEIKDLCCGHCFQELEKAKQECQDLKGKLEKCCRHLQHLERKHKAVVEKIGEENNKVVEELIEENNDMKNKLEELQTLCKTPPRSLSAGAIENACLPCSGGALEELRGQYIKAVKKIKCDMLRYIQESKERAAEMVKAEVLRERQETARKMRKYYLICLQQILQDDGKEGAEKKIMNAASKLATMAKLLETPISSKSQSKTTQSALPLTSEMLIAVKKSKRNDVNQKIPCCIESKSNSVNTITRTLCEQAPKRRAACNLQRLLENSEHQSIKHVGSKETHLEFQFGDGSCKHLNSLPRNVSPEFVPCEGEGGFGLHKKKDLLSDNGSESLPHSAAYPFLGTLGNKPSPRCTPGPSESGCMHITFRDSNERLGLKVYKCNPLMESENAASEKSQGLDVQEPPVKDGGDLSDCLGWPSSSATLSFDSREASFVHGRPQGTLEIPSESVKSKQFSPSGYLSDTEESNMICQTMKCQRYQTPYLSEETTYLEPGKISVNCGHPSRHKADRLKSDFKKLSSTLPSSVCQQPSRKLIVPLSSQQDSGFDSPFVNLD
# No constants are given. Whether binding was seen depends on the method and setting. In cells and extracts the contact can be indirect. Some entries that bind do so weakly or less than the wild type. Where a sequence is shown, tags or fusion partners need not be part of it.
# T1: myc-PLK4 (tetracycline-inducible transgene in U2OS T-REx cells) (human) (UniProt O00444)
# T1 sequence: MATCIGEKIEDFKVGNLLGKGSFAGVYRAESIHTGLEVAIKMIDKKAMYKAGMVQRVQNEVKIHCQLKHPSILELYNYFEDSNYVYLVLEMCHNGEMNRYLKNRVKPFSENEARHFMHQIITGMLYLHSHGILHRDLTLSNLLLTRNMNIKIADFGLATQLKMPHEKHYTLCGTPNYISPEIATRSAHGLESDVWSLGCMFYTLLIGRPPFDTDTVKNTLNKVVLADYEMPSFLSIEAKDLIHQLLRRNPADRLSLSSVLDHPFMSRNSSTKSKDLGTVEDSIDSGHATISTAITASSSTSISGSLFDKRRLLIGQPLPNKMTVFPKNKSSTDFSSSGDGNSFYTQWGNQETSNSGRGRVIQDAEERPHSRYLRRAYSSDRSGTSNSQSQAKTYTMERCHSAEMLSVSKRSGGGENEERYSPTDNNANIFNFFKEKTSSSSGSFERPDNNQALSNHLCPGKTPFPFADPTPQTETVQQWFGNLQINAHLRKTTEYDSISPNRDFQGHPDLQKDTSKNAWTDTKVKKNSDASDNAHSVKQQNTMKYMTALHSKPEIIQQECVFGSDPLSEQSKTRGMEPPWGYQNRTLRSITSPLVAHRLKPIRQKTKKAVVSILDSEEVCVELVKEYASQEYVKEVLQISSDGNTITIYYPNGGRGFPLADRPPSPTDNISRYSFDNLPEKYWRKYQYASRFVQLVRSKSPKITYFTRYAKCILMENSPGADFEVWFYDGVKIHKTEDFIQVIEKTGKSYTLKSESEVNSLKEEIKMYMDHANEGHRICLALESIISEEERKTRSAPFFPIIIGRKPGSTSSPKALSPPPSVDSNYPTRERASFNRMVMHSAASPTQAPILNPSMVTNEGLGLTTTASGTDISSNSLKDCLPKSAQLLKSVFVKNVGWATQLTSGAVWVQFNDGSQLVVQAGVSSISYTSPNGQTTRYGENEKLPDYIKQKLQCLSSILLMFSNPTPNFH
# T2: FLAG-tagged full-length STIL (human) (UniProt Q15468)
# T2 sequence: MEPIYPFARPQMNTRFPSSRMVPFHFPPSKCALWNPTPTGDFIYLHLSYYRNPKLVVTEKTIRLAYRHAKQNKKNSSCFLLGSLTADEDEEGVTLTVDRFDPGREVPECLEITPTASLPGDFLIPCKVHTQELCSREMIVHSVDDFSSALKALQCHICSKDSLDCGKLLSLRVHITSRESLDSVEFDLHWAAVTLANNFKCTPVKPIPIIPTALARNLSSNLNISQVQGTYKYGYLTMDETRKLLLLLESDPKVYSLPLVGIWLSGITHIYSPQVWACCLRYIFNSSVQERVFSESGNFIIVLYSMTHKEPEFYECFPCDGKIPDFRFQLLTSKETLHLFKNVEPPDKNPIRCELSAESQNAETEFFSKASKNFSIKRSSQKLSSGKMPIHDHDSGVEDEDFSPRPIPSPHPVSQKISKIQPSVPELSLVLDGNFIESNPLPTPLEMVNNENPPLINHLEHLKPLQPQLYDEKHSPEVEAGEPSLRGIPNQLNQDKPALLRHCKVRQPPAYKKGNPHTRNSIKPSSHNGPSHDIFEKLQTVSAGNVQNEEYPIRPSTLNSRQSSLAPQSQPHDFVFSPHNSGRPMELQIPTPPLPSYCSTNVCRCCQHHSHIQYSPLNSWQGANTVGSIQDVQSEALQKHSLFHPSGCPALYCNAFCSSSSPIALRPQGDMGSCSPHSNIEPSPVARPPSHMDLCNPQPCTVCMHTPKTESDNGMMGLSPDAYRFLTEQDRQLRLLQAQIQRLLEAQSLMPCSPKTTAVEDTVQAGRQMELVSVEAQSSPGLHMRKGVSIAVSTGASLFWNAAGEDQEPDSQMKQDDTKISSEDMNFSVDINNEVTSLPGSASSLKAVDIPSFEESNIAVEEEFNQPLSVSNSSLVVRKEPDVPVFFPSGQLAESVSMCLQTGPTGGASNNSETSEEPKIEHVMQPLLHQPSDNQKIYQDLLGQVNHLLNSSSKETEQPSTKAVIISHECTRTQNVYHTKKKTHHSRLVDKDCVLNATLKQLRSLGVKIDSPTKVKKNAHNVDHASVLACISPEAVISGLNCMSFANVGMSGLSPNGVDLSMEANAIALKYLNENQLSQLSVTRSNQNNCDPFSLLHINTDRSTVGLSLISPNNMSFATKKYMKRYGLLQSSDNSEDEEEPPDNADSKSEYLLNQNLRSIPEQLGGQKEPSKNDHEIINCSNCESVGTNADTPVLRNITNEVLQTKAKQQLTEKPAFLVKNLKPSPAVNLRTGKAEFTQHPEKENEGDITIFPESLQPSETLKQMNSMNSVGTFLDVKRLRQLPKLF
# What was measured:
# [1] = target: T1, myc-PLK4 (tetracycline-inducible transgene in U2OS T-REx cells) (human); test: co-IP; anti-myc immunoprecipitation from U2OS T-REx cells with tetracycline-induced myc-PLK4 (24 hr); endogenous partners detected by Western blot
# [2] = target: T2, FLAG-tagged full-length STIL (human); test: co-IP; STIL self-association: HEK293T cells co-expressing differently tagged STIL constructs for 24–36 hr; anti-myc or anti-FLAG immunoprecipitation; Western blot
molecule,measurement,setting,value
Cep152 (from UniProt O94986 1-1710),binding,[1],binds
"FLAG-tagged full-length STIL (protein, UniProt Q15468 1-1287) MEPIYPFARPQMNTRFPSSRMVPFHFPPSKCALWNPTPTGDFIYLHLSYYRNPKLVVTEKTIRLAYRHAKQNKKNSSCFLLGSLTADEDEEGVTLTVDRFDPGREVPECLEITPTASLPGDFLIPCKVHTQELCSREMIVHSVDDFSSALKALQCHICSKDSLDCGKLLSLRVHITSRESLDSVEFDLHWAAVTLANNFKCTPVKPIPIIPTALARNLSSNLNISQVQGTYKYGYLTMDETRKLLLLLESDPKVYSLPLVGIWLSGITHIYSPQVWACCLRYIFNSSVQERVFSESGNFIIVLYSMTHKEPEFYECFPCDGKIPDFRFQLLTSKETLHLFKNVEPPDKNPIRCELSAESQNAETEFFSKASKNFSIKRSSQKLSSGKMPIHDHDSGVEDEDFSPRPIPSPHPVSQKISKIQPSVPELSLVLDGNFIESNPLPTPLEMVNNENPPLINHLEHLKPLQPQLYDEKHSPEVEAGEPSLRGIPNQLNQDKPALLRHCKVRQPPAYKKGNPHTRNSIKPSSHNGPSHDIFEKLQTVSAGNVQNEEYPIRPSTLNSRQSSLAPQSQPHDFVFSPHNSGRPMELQIPTPPLPSYCSTNVCRCCQHHSHIQYSPLNSWQGANTVGSIQDVQSEALQKHSLFHPSGCPALYCNAFCSSSSPIALRPQGDMGSCSPHSNIEPSPVARPPSHMDLCNPQPCTVCMHTPKTESDNGMMGLSPDAYRFLTEQDRQLRLLQAQIQRLLEAQSLMPCSPKTTAVEDTVQAGRQMELVSVEAQSSPGLHMRKGVSIAVSTGASLFWNAAGEDQEPDSQMKQDDTKISSEDMNFSVDINNEVTSLPGSASSLKAVDIPSFEESNIAVEEEFNQPLSVSNSSLVVRKEPDVPVFFPSGQLAESVSMCLQTGPTGGASNNSETSEEPKIEHVMQPLLHQPSDNQKIYQDLLGQVNHLLNSSSKETEQPSTKAVIISHECTRTQNVYHTKKKTHHSRLVDKDCVLNATLKQLRSLGVKIDSPTKVKKNAHNVDHASVLACISPEAVISGLNCMSFANVGMSGLSPNGVDLSMEANAIALKYLNENQLSQLSVTRSNQNNCDPFSLLHINTDRSTVGLSLISPNNMSFATKKYMKRYGLLQSSDNSEDEEEPPDNADSKSEYLLNQNLRSIPEQLGGQKEPSKNDHEIINCSNCESVGTNADTPVLRNITNEVLQTKAKQQLTEKPAFLVKNLKPSPAVNLRTGKAEFTQHPEKENEGDITIFPESLQPSETLKQMNSMNSVGTFLDVKRLRQLPKLF",binding,[2],binds
"STIL-ΔSTAN (STIL with the STAN domain removed) (protein, UniProt Q15468) MEPIYPFARPQMNTRFPSSRMVPFHFPPSKCALWNPTPTGDFIYLHLSYYRNPKLVVTEKTIRLAYRHAKQNKKNSSCFLLGSLTADEDEEGVTLTVDRFDPGREVPECLEITPTASLPGDFLIPCKVHTQELCSREMIVHSVDDFSSALKALQCHICSKDSLDCGKLLSLRVHITSRESLDSVEFDLHWAAVTLANNFKCTPVKPIPIIPTALARNLSSNLNISQVQGTYKYGYLTMDETRKLLLLLESDPKVYSLPLVGIWLSGITHIYSPQVWACCLRYIFNSSVQERVFSESGNFIIVLYSMTHKEPEFYECFPCDGKIPDFRFQLLTSKETLHLFKNVEPPDKNPIRCELSAESQNAETEFFSKASKNFSIKRSSQKLSSGKMPIHDHDSGVEDEDFSPRPIPSPHPVSQKISKIQPSVPELSLVLDGNFIESNPLPTPLEMVNNENPPLINHLEHLKPLQPQLYDEKHSPEVEAGEPSLRGIPNQLNQDKPALLRHCKVRQPPAYKKGNPHTRNSIKPSSHNGPSHDIFEKLQTVSAGNVQNEEYPIRPSTLNSRQSSLAPQSQPHDFVFSPHNSGRPMELQIPTPPLPSYCSTNVCRCCQHHSHIQYSPLNSWQGANTVGSIQDVQSEALQKHSLFHPSGCPALYCNAFCSSSSPIALRPQGDMGSCSPHSNIEPSPVARPPSHMDLCNPQPCTVCMHTPKTESDNGMMGLSPDAYRFLTEQDRQLRLLQAQIQRLLEAQSLMPCSPKTTAVEDTVQAGRQMELVSVEAQSSPGLHMRKGVSIAVSTGASLFWNAAGEDQEPDSQMKQDDTKISSEDMNFSVDINNEVTSLPGSASSLKAVDIPSFEESNIAVEEEFNQPLSVSNSSLVVRKEPDVPVFFPSGQLAESVSMCLQTGPTGGASNNSETSEEPKIEHVMQPLLHQPSDNQKIYQDLLGQVNHLLNSSSKETEQPSTKAVIISHECTRTQNVYHTKKKTHHSRLVDKDCVLNATLKQLRSLGVKIDSPTKVKKNAHNVDHASVLACISPEAVISGLNCMSFANVGMSGLSPNGVDLKSEYLLNQNLRSIPEQLGGQKEPSKNDHEIINCSNCESVGTNADTPVLRNITNEVLQTKAKQQLTEKPAFLVKNLKPSPAVNLRTGKAEFTQHPEKENEGDITIFPESLQPSETLKQMNSMNSVGTFLDVKRLRQLPKLF",binding,[2],binds
